# This continues a long series; more values of the same kind are listed elsewhere.
# Test system: PBMC of RRMS patients
# Assay: Gene expression microarray analysis (HG-U133A-2) of PBMC from RRMS patients treated with LAQ, ancillary study to ALLEGRO
# Format: in vivo, human
# Conditions: for Fold-Change (4.0 vs. 0.0): after six months of treatment; for Fold-Change (1.0 vs. 0.0): one month of treatment
# Description: The goal of this ancillary study was to characterize gene expression changes and corresponding biological mechanisms induced in PBMC of RRMS patients by LAQ treatment. According to ALLEGRO clinical trial inclusion criteria, 25 patients were randomly assigned to receive LAQ (n=13, age 38.8±2.3 years, female/male ratio: 8/5) or placebo (n=12, age 37.2±3.4 years, female/male ratio: 8/4).
# Peripheral blood samples were obtained from RRMS patients at baseline before start of LAQ treatment or placebo, after 0, 1, 6 and 24 month of treatment (visit 0, 1, 6 and 7 according to ALLEGRO clinical trial protocol correspondently) for gene microarray analysis.
# Briefly, 1) Peripheral blood mononuclear cells (PBMC) were obtained from RRMS patients that participated in ALLEGRO and were treated daily with 0.6 mg LAQ or placebo. PBMC were subjected for gene expression analysis (HU-133A-2-Affymatrix arrays) at baseline and at 1 and 6 months of LAQ treatment; 2) Data was analyzed by Partek Genomics Solution software. Most informative genes (MIGs) were defined as those that differentiated between groups with p<0.01. Gene functional annotation, enrichment and pathway analysis were performed by Ingenuity software. For each time point, genes that changed in placebo group were excluded from further analysis; and 3) Verification of LAQ related mechanism was performed by Western blot.
# PBMC were extracted from 15 ml peripheral blood, separated by Ficoll-Hypaque gradient. Total RNA was extracted using both Trizol (Invitrogen, USA) and Phase-Lock-Gel columns (Eppendorf, Germany) including a DNase digestion step. RNA integrity was assessed by RNA Experion automated electrophoresis system (Bio-Rad Laboratories, Hercules, Calif.).
# Probe synthesis using 3 μg total RNA, hybridization, detection, and scanning was performed according to the standard Affymetrix, Inc. USA protocols; cDNA was synthesized using the Two-Cycle cDNA Synthesis Kit (Affymetrix, Inc., USA), and in-vitro transcription performed with the GeneChip IVT Labeling Kit (Affymetrix, Inc., USA). The biotin-labeled IVT-RNA was hybridized to HG-U133A-2 arrays containing 18,400 gene transcripts, each corresponding to 14,500 well-annotated human genes, washed in a GeneChip Fluidics Station 450 (Hewlett Packard, USA, GeneArray-™ scanner G2500A) and scanned according to the manufacturer's protocol (Affymetrix, Inc., USA).
# Data analysis was performed on Partek Genomics Solution software (www.partek.com; Partek Incorporated, St. Louis, Mo.). Expression values were computed from raw CEL files by applying the Robust Multi-Chip Average (RMA) background correction algorithm. RMA correction included: 1) values background correction; 2) quintile normalization; 3) log 2 transformation; and 4) median polish summarization. The ANOVA, Repeated Measures and correlation analysis implicated in Partek software ware applied to evaluate LAQ effects. Most informative genes MIGs were defined as those that differentiated between experimental groups with p<0.01. All p-values were calculated for False Discovery Rate (FDR) multiple test correction at p=0.05.
# Additionally, significance of individual genes was tested by parametric T-test and non parametric Mann-Whitney test using Bootstrapping approach based on repeated permutations of the data with 5% FDR for multiple testing.
# Gene functional annotation, enrichment, and pathway analyses to identify the leading biological pathways that operated under LAQ treatment were performed by Ingenuity Pathways Analysis software (www.ingenuity.com).
# ANOVA analysis was used to compare PBMC gene expression after 1, 6 or 24 month of LAQ treatment with baseline gene expression.
# For each time point inventors performed analysis source of variation in dataset. (FIG. 1). Age, gender and batch effects were considered as confounders regarding LAQ or Placebo related changes. For each time point genes associated with Placebo effect were evaluated and excluded from further analysis. […]
structure (smiles),measurement,setting,value
"CCN(C(=O)c1c(O)c2c(Cl)cccc2n(C)c1=O)c1ccccc1 [LAQ, 5-chloro-N-ethyl-4-hydroxy-1-methyl-2-oxo-N-phenyl-1,2-dihydroquinoline-3-carboxamide]",Fold-Change (4.0 vs. 0.0),CYP3A4 expression,−1.205
same,Fold-Change (4.0 vs. 0.0),CYP4F8 expression,−1.221
same,Fold-Change (1.0 vs. 0.0),CYP4F11 206153_at,−1.095
same,Fold-Change (4.0 vs. 0.0),DNMBP expression,−1.219
same,Fold-Change (4.0 vs. 0.0),DNMT3L expression,−1.22
same,Fold-Change (4.0 vs. 0.0),DRD3 expression,−1.215
same,Fold-Change (4.0 vs. 0.0),DUS4L expression,−1.207
same,Fold-Change (4.0 vs. 0.0),DUSP13 expression,−1.222
same,Fold-Change (1.0 vs. 0.0),EGF 206254_at,−1.734
same,Fold-Change (4.0 vs. 0.0),EGFR expression,−1.198
same,Fold-Change (4.0 vs. 0.0),EGR4 expression,−1.21
same,Fold-Change (4.0 vs. 0.0),ELL expression,−1.207
same,Fold-Change (1.0 vs. 0.0),ENDOD1 212573_at,−1.293
same,Fold-Change (4.0 vs. 0.0),EPS8L3 expression,−1.214
same,Fold-Change (1.0 vs. 0.0),EPS15L2 207750_at,−1.1441
same,Fold-Change (4.0 vs. 0.0),ERBB3 expression,−1.216
same,Fold-Change (4.0 vs. 0.0),ERCC4 expression,−1.198
same,Fold-Change (4.0 vs. 0.0),ESRRG expression,−1.21
same,Fold-Change (4.0 vs. 0.0),EYA3 expression,−1.196
same,Fold-Change (4.0 vs. 0.0),FBXL18 expression,−1.1956
same,Fold-Change (4.0 vs. 0.0),FGF13 expression,−1.202
same,Fold-Change (4.0 vs. 0.0),FLJ14100 expression,−1.22
same,Fold-Change (1.0 vs. 0.0),FLNA 200859_x_at,−1.155
same,Fold-Change (1.0 vs. 0.0),FLNA 214752_x_at,−1.14
same,Fold-Change (1.0 vs. 0.0),FOLR1 204437_s_at,−1.22
same,Fold-Change (4.0 vs. 0.0),FOXA2 expression,−1.2197
same,Fold-Change (1.0 vs. 0.0),FUT9 214046_at,−1.127
same,Fold-Change (1.0 vs. 0.0),GFI1B 208501_at,−1.558
same,Fold-Change (4.0 vs. 0.0),GFRA3 expression,−1.2047
same,Fold-Change (4.0 vs. 0.0),GHRHR expression,−1.204
same,Fold-Change (4.0 vs. 0.0),GJC1 expression,−1.197
same,Fold-Change (1.0 vs. 0.0),GLRA3 210661_at,−1.156
same,Fold-Change (4.0 vs. 0.0),GLT8D2 expression,−1.216
same,Fold-Change (1.0 vs. 0.0),GNG11 204115_at,−1.679
same,Fold-Change (4.0 vs. 0.0),GPD1 expression,−1.213
same,Fold-Change (4.0 vs. 0.0),GPLD1 expression,−1.208
same,Fold-Change (4.0 vs. 0.0),GPR144 expression,−1.199
same,Fold-Change (4.0 vs. 0.0),GPR153 expression,−1.202
same,Fold-Change (4.0 vs. 0.0),GPRC5A expression,−1.196
same,Fold-Change (1.0 vs. 0.0),GREM1 218468_s_at,−1.116
same,Fold-Change (1.0 vs. 0.0),GRHL2 219388_at,−1.131
same,Fold-Change (1.0 vs. 0.0),GRIK2 215655_at,−1.122
same,Fold-Change (4.0 vs. 0.0),GRIK2 expression,−1.2
same,Fold-Change (4.0 vs. 0.0),GRIN2B expression,−1.206
same,Fold-Change (1.0 vs. 0.0),GUCY1B3 211555_s_at,−1.618
same,Fold-Change (4.0 vs. 0.0),HAB1 expression,−1.207
same,Fold-Change (4.0 vs. 0.0),HDAC6 expression,−1.2058
same,Fold-Change (4.0 vs. 0.0),HECW1 expression,−1.2103
same,Fold-Change (4.0 vs. 0.0),HIP1 expression,−1.2
same,Fold-Change (1.0 vs. 0.0),HIST1H2AI 214542_x_at,−1.2842
same,Fold-Change (1.0 vs. 0.0),HLA-C 214459_x_at,−1.063
same,Fold-Change (4.0 vs. 0.0),HLA-DRB6 expression,−1.2
same,Fold-Change (1.0 vs. 0.0),HLA-E 200904_at,−1.126
same,Fold-Change (4.0 vs. 0.0),HNF1B expression,−1.208
same,Fold-Change (4.0 vs. 0.0),HOXB1 expression,−1.218
same,Fold-Change (4.0 vs. 0.0),HOXB3 expression,−1.21
same,Fold-Change (4.0 vs. 0.0),HOXD4 expression,−1.204
same,Fold-Change (4.0 vs. 0.0),HR expression,−1.215
same,Fold-Change (4.0 vs. 0.0),HSPG2 expression,−1.2
same,Fold-Change (4.0 vs. 0.0),IFT122 expression,−1.223
same,Fold-Change (4.0 vs. 0.0),IL1RAPL1 expression,−1.22
same,Fold-Change (4.0 vs. 0.0),INPP5A expression,−1.213
same,Fold-Change (4.0 vs. 0.0),IRF5 expression,−1.21
same,Fold-Change (4.0 vs. 0.0),ITGA8 expression,−1.206
same,Fold-Change (4.0 vs. 0.0),ITPR3 expression,−1.202
same,Fold-Change (4.0 vs. 0.0),KCNA1 expression,−1.221
same,Fold-Change (4.0 vs. 0.0),KCNJ13 expression,−1.206
same,Fold-Change (4.0 vs. 0.0),KCNMB3 expression,−1.213
same,Fold-Change (1.0 vs. 0.0),KIAA1199 212942_s_at,−1.121
same,Fold-Change (1.0 vs. 0.0),KIF2A 203086_at,−1.277
same,Fold-Change (4.0 vs. 0.0),KIR3DX1 expression,−1.1993
same,Fold-Change (4.0 vs. 0.0),KLK7 expression,−1.214
same,Fold-Change (4.0 vs. 0.0),KLK11 expression,−1.205
same,Fold-Change (4.0 vs. 0.0),KLK13 expression,−1.22
same,Fold-Change (1.0 vs. 0.0),KRT20 213953_at,−1.137
same,Fold-Change (4.0 vs. 0.0),KRT33A expression,−1.198
same,Fold-Change (4.0 vs. 0.0),LAMA2 expression,−1.205
same,Fold-Change (4.0 vs. 0.0),LARGE expression,−1.207
same,Fold-Change (4.0 vs. 0.0),LEFTY2 expression,−1.204
same,Fold-Change (4.0 vs. 0.0),LENEP expression,−1.208
same,Fold-Change (1.0 vs. 0.0),LEPROT 202378_s_at,−1.261
same,Fold-Change (4.0 vs. 0.0),LOC440895 expression,−1.216
